{"sequences": {"note": "Sequences of proteins named here, by UniProt entry; tags and fusion partners are left off. A change or cut given only in a name is not applied to a line headed by its entry.", "UniProt Q01844": "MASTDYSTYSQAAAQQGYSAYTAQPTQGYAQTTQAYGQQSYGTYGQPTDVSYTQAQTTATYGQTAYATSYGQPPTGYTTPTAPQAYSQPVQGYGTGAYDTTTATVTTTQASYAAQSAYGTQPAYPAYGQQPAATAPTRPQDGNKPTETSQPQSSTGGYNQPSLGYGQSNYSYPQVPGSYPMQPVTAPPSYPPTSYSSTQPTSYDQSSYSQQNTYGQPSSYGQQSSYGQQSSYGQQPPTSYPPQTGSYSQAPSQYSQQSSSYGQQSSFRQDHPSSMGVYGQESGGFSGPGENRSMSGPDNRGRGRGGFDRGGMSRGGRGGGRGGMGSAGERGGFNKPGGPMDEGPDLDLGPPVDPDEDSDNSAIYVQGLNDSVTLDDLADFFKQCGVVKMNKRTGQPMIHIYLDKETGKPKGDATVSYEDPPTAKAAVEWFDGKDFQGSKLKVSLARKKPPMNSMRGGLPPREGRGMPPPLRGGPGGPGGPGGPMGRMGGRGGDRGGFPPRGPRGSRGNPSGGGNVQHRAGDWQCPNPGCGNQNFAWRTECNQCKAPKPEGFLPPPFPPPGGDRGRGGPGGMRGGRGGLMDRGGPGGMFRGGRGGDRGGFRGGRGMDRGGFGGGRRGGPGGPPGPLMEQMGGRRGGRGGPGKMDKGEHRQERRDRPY"}, "source": "paper PMC12747546", "about": "“Homoharringtonine suppresses acute myeloid leukemia progression by orchestrating EWSR1 phase separation in an m^6A‐YTHDF2‐dependent mechanism” (iMeta, 2025)", "molecules": {"B1": {"name": "myc-tagged YTH domain of YTHDF2 (YTH^YHTDF2-myc) (domain or fragment, UniProt Q9Y5A9 408-552)", "chain": "KHGRVFIIKSYSEDDIHRSIKYNIWCSTEHGNKRLDAAYRSMNGKGPVYLLFSVNGSGHFCGVAEMKSAVDYNTCAGVWSQDKWKGRFDVRWIFVKDVPNSQLRHIRLENNENKPVTNSRDTQEVPLEKAKQVLKIIASYKHTTS"}}, "key": {"[1]": {"target": "EWSR1 (in NB4 cells) (human (endogenous in NB4)) (UniProt Q01844)", "assay": "immunoblot of EWSR1 oligomers; Western blot for EWSR1 oligomerization in NB4 cells treated with HHT at different concentrations"}, "[2]": {"target": "EWSR1 fused at its C-terminal region to a split mVenus fragment (EWSR1-VN and EWSR1-VC) (human) (UniProt Q01844)", "assay": "split reporter; BiFC with mVenus fragments VN1-173 and VC155-238; HEK293T cells co-transfected with EWSR1-VN and EWSR1-VC, fixed after 24 h, confocal microscopy; with or without HHT"}, "[3]": {"target": "T1, myc-tagged YTH domain of YTHDF2 (YTH^YHTDF2-myc) (UniProt Q9Y5A9)", "T1 sequence": "B1 chain", "assay": "co-IP; HEK293T cells cotransfected with constructs of EWSR1 (HA) and YTH-myc; cell extracts IP with anti-Myc antibodies, HA detected by blot"}, "[4]": {"target": "HA-tagged full-length EWSR1 (HA-EWSR1) (human) (UniProt Q01844)", "assay": "co-IP; HEK293T cells transfected with HA-EWSR1 (with YTH-myc where named), with or without HHT; NP40 lysate, IP with anti-HA (HA-tag magnetic beads), western blot"}}, "note": "Results are given in words; binding and its absence hold for the method and conditions named. For some of these results: In cells and extracts the contact can be indirect. Some entries that bind do so weakly or less than the wild type. For some of these results: Where a sequence is shown, tags or fusion partners need not be part of it."}
{"molecule": "EWSR1 (in NB4 cells) (from UniProt Q01844 1-656)", "values": [{"measurement": "binding", "setting": "[1]", "value": "binds"}]}
{"molecule": "EWSR1 fused at its C-terminal region to a split mVenus fragment (EWSR1-VN and EWSR1-VC) (from UniProt Q01844 1-656)", "values": [{"measurement": "binding", "setting": "[2]", "value": "binds"}]}
{"molecule": "HA-tagged C-terminal region of EWSR1 (HA-EWSR1-C, amino acids 301-656) (from UniProt Q01844 301-656) (domain or fragment)", "values": [{"measurement": "binding", "setting": "[3]", "value": "binds"}]}
{"molecule": "B1", "values": [{"measurement": "binding", "setting": "[4]", "value": "binds"}]}
